These results are taken from publication PMC13534789, “Molecular Glue Degraders Enhance CAPRIN1‐Dependent Lysosomal Degradation of APP and Reduce Amyloid β in Alzheimer's Disease” (Advanced Science, 2026).

The target of experiment [1] is T1, CAPRIN1, endogenous in HEK293 cells (human (endogenous in HEK293)) (UniProt Q14444).
T1 sequence: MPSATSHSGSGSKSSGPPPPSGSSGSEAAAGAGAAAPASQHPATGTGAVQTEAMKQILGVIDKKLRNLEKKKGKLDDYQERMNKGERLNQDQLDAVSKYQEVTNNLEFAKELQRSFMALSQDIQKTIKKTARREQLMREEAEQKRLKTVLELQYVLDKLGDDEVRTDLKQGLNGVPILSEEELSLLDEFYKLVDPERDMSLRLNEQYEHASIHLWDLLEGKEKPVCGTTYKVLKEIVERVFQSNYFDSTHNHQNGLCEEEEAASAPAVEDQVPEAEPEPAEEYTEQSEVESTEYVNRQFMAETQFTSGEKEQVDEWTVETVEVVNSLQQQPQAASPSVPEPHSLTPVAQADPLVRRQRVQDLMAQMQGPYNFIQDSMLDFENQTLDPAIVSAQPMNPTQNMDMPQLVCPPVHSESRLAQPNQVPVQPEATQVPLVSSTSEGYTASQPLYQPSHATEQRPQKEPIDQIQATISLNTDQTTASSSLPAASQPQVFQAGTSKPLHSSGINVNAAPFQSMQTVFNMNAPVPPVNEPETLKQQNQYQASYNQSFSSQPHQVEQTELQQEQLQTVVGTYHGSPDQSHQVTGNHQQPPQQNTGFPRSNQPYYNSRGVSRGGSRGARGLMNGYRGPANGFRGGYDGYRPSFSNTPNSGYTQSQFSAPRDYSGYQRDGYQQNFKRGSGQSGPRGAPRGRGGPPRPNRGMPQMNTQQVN
Nature of the experiment: co-IP; HEK-APP695WT cells, DMSO or 0043 (10 µM, 24 h); CAPRIN1 immunoprecipitated, APP detected by blot.

Experiment [2] has as its target T2, Flag-tagged CAPRIN1 (cytoplasmic activation/proliferation-associated protein 1) (UniProt Q14444).
T2 sequence: T1 sequence
Put plainly: co-IP; HEK cells co-transfected with HiBiT-APP695 and Flag-tagged CAPRIN1; Flag immunoprecipitation, immunoblot with HiBiT antibodies. Background: With HiBiT, luminescence reflects the tagged protein that the partner subunit can reach.

These are yes or no findings as the source states them, for the method shown. In cells and extracts the contact can be indirect. Some entries that bind do so weakly or less than the wild type. For some assays here: Tags and fused reporters may be left off the sequences shown.

For “APP695 wild type, untagged, in HEK-APP695WT cells (from UniProt P05067-4 18-695)”, in experiment [1], the binding entry is reported as “binds”.

Regarding “APP695-HiBiT (wild-type amyloid precursor protein, isoform APP695, with HiBiT tag) (from UniProt P05067-4 18-695)”, the binding result in experiment [2] was “binds”.
